The source of these data is article doi:10.1101/2022.10.12.22280984.

Sequences of proteins named here, by UniProt entry; tags and fusion partners are left off.
UniProt P12004: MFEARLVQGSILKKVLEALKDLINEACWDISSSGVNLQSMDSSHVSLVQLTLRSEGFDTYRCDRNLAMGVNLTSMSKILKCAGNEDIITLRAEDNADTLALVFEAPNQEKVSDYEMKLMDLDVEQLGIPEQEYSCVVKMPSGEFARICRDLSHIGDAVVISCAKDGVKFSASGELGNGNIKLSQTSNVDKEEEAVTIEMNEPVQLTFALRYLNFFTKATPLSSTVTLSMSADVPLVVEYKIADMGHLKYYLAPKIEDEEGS
UniProt P14598: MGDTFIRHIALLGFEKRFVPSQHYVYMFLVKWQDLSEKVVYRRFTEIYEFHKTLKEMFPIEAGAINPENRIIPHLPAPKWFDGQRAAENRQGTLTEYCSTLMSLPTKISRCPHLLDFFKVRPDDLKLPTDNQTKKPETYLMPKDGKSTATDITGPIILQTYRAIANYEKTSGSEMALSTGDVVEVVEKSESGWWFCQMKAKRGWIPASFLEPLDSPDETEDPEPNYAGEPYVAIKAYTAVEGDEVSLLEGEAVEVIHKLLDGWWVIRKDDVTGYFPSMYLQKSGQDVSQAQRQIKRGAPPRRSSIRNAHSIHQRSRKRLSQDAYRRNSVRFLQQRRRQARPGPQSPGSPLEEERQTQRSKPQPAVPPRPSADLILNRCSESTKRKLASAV

Assay [1] addresses cytosolic proliferating cell nuclear antigen (PCNA) of neutrophils (human (endogenous in neutrophils)) (UniProt P12004). Kind of assay: proximity ligation.
For assay [2], the target named is proliferating cell nuclear antigen (PCNA), recombinant (UniProt P12004). Kind of assay: SPR.
Assay [3] deals with cytosolic proliferating cell nuclear antigen (PCNA) of neutrophils (human (endogenous in neutrophils)) (UniProt P12004). Nature of the assay: proximity ligation. The source holds these as a separate data set.

Read-outs that look alike come from different tables or passages of the source. These are yes or no findings as the source states them, for the method shown. For some assays here: Binding seen in cells or lysates may run through a third protein. Some binding calls cover weakened binding; strength is not graded here.

As to “p47phox of neutrophils, cytosolic NADPH oxidase subunit (from UniProt P14598 1-390)”, in assay [1], the binding result is on record as “binds”.

B1: recombinant human S100A9 (protein, UniProt P06702 1-114)
chain: MTCKMSQLERNIETIINTFHQYSVKLGHPDTLNQGEFKELVRKDLQNFLKKENKNEKVIEHIMEDLDTNADKQLSFEEFIMLMARLTWASHEKMHEGDEGPGHHHKPGLGEGTP
Regarding B1, the binding entry in assay [2] is recorded as “no binding (tested: 2 μM)”.

B2: recombinant human S100A8 (protein, UniProt P05109 1-93)
chain: MLTELEKALNSIIDVYHKYSLIKGNFHAVYRDDLKKLLETECPQYIRKKGADVWFKELDINTDGAVNFQEFLILVIKMGVAAHKKSHEESHKE
Turning to B2, the binding entry in assay [2] is “binds”.

B3: recombinant human S100A8/A9 heterodimer (calprotectin), 1:1 complex (complex, UniProt P05109 1-93; P06702 1-114)
chain 1: B2 chain
chain 2: B1 chain
For the molecule B3, in assay [2], the binding entry was “no binding (tested: 2 μM)”.

B4: S100A8 of neutrophils (protein, UniProt P05109 1-93)
chain: B2 chain
As to B4, in assay [3], the binding result was “binds”.
